Assay results reported in ChEMBL document CHEMBL1140143, “Combining ligand-based pharmacophore modeling, quantitative structure-activity relationship analysis and in silico screening for the discovery of new potent hormone sensitive lipase inhibitors” (J Med Chem, 2008).

Target: T1, Hormone-sensitive lipase (Rattus norvegicus, UniProt P15304)
T1 sequence (P15304 whole entry): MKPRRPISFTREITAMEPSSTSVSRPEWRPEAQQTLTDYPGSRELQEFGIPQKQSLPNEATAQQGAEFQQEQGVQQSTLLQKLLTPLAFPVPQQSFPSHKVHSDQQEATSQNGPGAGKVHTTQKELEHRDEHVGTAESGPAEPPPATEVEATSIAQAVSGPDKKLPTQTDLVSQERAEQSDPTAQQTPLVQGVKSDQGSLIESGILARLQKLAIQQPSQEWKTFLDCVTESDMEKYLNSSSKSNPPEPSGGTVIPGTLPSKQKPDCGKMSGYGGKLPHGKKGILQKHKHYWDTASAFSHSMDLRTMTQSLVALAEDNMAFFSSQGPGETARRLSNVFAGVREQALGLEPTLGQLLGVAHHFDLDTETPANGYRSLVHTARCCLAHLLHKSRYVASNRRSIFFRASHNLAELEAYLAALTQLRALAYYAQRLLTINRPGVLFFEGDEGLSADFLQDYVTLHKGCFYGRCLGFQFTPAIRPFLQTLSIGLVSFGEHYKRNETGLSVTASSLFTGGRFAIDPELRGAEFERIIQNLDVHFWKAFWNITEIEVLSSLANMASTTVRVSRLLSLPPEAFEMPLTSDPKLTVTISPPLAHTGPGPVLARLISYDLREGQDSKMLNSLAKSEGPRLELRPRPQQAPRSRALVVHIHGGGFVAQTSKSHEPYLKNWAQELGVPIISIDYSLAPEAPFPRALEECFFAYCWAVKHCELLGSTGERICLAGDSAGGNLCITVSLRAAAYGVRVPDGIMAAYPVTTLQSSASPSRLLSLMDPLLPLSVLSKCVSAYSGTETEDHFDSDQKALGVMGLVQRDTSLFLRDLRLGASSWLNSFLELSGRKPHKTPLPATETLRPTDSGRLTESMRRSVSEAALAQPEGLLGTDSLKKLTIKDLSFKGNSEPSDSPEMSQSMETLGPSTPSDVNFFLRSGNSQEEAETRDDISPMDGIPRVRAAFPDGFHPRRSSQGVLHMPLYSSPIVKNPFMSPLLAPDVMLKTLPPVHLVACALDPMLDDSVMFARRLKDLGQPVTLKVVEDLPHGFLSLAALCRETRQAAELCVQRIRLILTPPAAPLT
Assay: Inhibition of HSL in Wistar rat isolated fat cells by spectrophotometric assay

COc1ccc2cc([C@H](C)C(=O)O)ccc2c1 [NAPROXEN]
IC50: 1200 nM
